Some entries share one result that the patent states for a list of compounds. For some assays here: At least one compound was matched to its structure with a doubt left.
What was measured:
BlaR-CTD receptor [1] = molecular target: T1, BlaR-CTD receptor (Bacillus licheniformis, UniProt P12287); assay: 9-minute test: BlaR-CTD coupled to gold beads, membrane test device, milk; type: binding; conditions: test carried out in 9 minutes, 47° C.; positive when 1st band less intense than 2nd band
T1 construct: uses the BlaR-CTD receptor coupled to gold beads
Experimental: (§1) This example illustrates the detection in milk of antibiotics containing a β-lactam ring, which are controlled by the health authorities. The test described in this example uses the BlaR-CTD receptor coupled to gold beads which serve as labelling agents, and uses a support in the form of a test device comprising a solid support to which membranes are attached.
6 samples of fresh milk containing 0; 4; 6; 8; 10 and 12 ppb of cephapirin, respectively, are prepared. Each of these solutions is then analyzed in the following way.
(§2) A 200 μl aliquot sample of milk and 45.27 μl of solution prepared in Example 1.1.3 are taken and placed in a glass flask. This mixture is incubated for 7 minutes at 47° C. A test device is taken and placed vertically in the glass flask such that the first end of the test device is in contact with the mixture and such that the second end rests on the wall of the glass flask. The mixture is left to migrate on the test device, while incubating the assembly for 2 minutes at 47° C.
(§3) An intensity value ranging from 0 to 10 is attributed to the bands detected, the value 10 being given to the most intense band and the value 0 being given to the least intense band. According to this scale, a value of 6 is assigned to the reference band. The intensity of the signal observed in the first band is inversely proportional to the amount of cephapirin present in the sample.
In this example, when the first band has an intesity less than that of the second band, the test is considered as being positive.

BlaR-CTD receptor [2] = molecular target: T1, BlaR-CTD receptor; assay: 3-minute rapid test: BlaR-CTD coupled to gold beads, membrane test device, milk; type: binding; conditions: test carried out in 3 minutes, 47° C.; positive when 1st band less intense than 2nd band
Experimental: as §1
7 samples of fresh milk containing 0; 1; 2; 3; 4; 5 and 6 ppb of penicillin G, respectively, are prepared. Each of these solutions is then analyzed in the following way:
as §2, with “1 minute” for “7 minutes”
as §3, with “penicillin G” for “cephapirin”, “sample. […]” for “sample.”

[3] = molecular target: T2, BlaR-CTD receptor in the form of a fusion protein with alkaline phosphatase or peroxidase (Bacillus licheniformis, UniProt P12287); assay: Example 4: BlaR-CTD fusion protein with alkaline phosphatase or peroxidase, coated tube, milk; type: binding; conditions: absorbance at 405 nm, 47° C.
T2 construct: uses the BlaR-CTD receptor in the form of a fusion protein with alkaline phosphatase or peroxidase
Experimental: The test described in this example uses the BlaR-CTD receptor in the form of a fusion protein with alkaline phosphatase or peroxidase, and uses a support in the form of a coated tube.
In this example, polystyrene tubes with high protein absorption of the brand name NUNK (Maxisorp type) are used, which are treated with a reference antibiotic solution as indicated in Example 3.3.2.
7 picomol of recognition agent are incubated in the presence of 500 μl of milk for 5 minutes at 47° C. in an Eppendorf tube. […] The milk is then incubated for 2 minutes at 47° C. After removing the milk, the tube is washed twice with 1 ml of 1 M, pH 9.8 diethanolamine buffer, 0.5 mM MgCl2. […] The absorbance of the supernatant is then measured using a spectrophotometer whose wavelength is set at 405 nm.

[4] = molecular target: T3, BlaR-CTD-β-lactamase fusion protein (UniProt P04190+P12287); assay: Example 2: BlaR-CTD-β-lactamase fusion protein with cephalosporin C magnetic beads, milk; type: binding, Bacillus licheniformis; conditions: nitrocefine absorbance at 482 nm, 47° C., detection at concentrations below the US standards listed
T3 construct: made in house; host or cells: E. coli
T3 sequence (P12287+P04190 with tags, fused parts or gaps): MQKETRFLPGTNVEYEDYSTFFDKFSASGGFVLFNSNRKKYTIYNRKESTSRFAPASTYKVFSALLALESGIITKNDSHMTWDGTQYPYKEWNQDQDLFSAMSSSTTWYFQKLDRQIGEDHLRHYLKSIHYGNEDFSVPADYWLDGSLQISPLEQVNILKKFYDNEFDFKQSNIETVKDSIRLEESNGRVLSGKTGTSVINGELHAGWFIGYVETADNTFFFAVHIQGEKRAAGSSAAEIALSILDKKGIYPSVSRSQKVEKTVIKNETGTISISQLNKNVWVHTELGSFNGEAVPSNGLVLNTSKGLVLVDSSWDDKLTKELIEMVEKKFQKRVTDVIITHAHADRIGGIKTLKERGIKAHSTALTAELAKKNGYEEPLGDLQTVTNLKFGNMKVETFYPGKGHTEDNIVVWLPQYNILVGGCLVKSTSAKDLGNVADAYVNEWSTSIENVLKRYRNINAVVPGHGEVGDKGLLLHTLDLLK
Text: This example illustrates the detection in milk of the 6 antibiotics containing a β-lactam ring which are controlled by the US authorities. The test described in this example uses the BlaR-CTD receptor in the form of a fusion protein with β-lacatamase and uses a support in the form of magnetic beads.
The BlaR-CTD-β-lactamase fusion protein is obtained by genetic coupling between the BlaR-CTD receptor (B. Joris et al., FEMS Microbiology Letters, 107-114, 1990) and Zn β-lactamase from Bacillus cereus (M. Hussain et al., 1985, J. Bact., 164:1, 223-229, 1985).
BioMag 4100 particles (available from DRG Instrument GmbH, Marburg, Germany, under the reference AM 4100 B) are used, the NH2 ends of which have been activated with glutaraldehyde in the following way: • one volume of initial solution of BioMag 4100 particles is rinsed 4 times with 5 volumes of 0.01M pH 6.0 pyridine buffer. The particles are taken up in 2.5 volumes of glutaraldehyde at 5% in pyridine buffer and are agitated by rotation for 3 hours at room temperature. They are then rinsed 10 times with 2 volumes of 0.01 M pH 7.0 Kpi buffer. The particles are then resuspended in 1 volume of 0.1 M cephalosporin C in Kpi buffer and are agitated by rotation overnight at +4° C. The final rinsing is carried out until the cephalasporin C has been completely removed from the 0.1 M pH 7.0 Kpi buffer. 2.3. Determination of the 6 Antibiotics Penicillin G, Ampicillin, Amoxicillin, Cloxacillin, Cephapirin and Certiofur in Milk. […]
50 μl of solution 1 are placed in the presence of […] of doped milk samples and incubated at 47° C. for 2 minutes. […] The absorbance of the residual solution at 482 nm is then measured relative to the nitrocefine solution.

Compound	concentration detected in a sample of milk (BlaR-CTD receptor [1])	concentration detected in a sample of milk (BlaR-CTD receptor [2])	concentration determined in milk [3]	concentration detected in milk [4] [ppb]
Cc1onc(-c2c(Cl)cccc2Cl)c1C(=O)N[C@@H]1C(=O)N2[C@@H]1SC(C)(C)[C@@H]2C(=O)O [dicloxacillin]	less than 8 ppb	less than 20 ppb		
Cc1onc(-c2ccccc2Cl)c1C(=O)N[C@@H]1C(=O)N2[C@@H]1SC(C)(C)[C@@H]2C(=O)O [cloxacillin]			less than 10 ppb	< 10
CCOc1ccc2ccccc2c1C(=O)N[C@@H]1C(=O)N2[C@@H]1SC(C)(C)[C@@H]2C(=O)O [nafcillin]	less than 20 ppb			
CO/N=C(\C(=O)N[C@@H]1C(=O)N2C(C(=O)[O-])=C(C[n+]3cccc4c3CCCC4)CS[C@H]12)c1csc(N)n1 [cefquinone]	less than 20 ppb			
CC1(C)S[C@@H]2[C@H](NC(=O)[C@H](N)c3ccc(O)cc3)C(=O)N2[C@H]1C(=O)O [amoxicillin]			less than 10 ppb	< 10
Cc1onc(-c2ccccc2)c1C(=O)N[C@@H]1C(=O)N2[C@@H]1SC(C)(C)[C@@H]2C(=O)O [oxacillin]	less than 8 ppb	less than 20 ppb		
CC1(C)S[C@@H]2[C@H](NC(=O)[C@H](N)c3ccccc3)C(=O)N2[C@H]1C(=O)O [ampicillin]				< 10
